Results are given in words; binding and its absence hold for the method and conditions named. Some entries that bind do so weakly or less than the wild type.
Assays:
[1] = target: T1, restricted (IL4 independent) hIL13 receptor (human) (UniProt Q14627); experiment: autoradiography on GBM tissue sections
T1 sequence (looked up): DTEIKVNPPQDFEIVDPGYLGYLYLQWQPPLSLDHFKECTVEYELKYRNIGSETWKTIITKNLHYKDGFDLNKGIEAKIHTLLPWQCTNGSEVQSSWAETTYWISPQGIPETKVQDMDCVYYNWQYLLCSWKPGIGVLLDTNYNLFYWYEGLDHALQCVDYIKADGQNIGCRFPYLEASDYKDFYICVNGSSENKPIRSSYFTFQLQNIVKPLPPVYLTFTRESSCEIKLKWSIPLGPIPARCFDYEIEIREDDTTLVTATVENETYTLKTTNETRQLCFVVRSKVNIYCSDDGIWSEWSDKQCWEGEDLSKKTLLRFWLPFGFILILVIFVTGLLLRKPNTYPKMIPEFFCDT

Sequences of proteins named here, by UniProt entry; tags and fusion partners are left off. A change or cut given only in a name is not applied to a line headed by its entry.
UniProt P35225: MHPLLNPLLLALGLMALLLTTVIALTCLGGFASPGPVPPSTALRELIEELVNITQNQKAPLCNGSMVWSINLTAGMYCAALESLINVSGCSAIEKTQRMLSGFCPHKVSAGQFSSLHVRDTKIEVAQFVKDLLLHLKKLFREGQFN

[2] = target: T1, restricted (IL4 independent) hIL13 receptor (human); experiment: autoradiography on GBM tissue sections; unlabeled competitor against ^125I-hIL13.E13Y

Row | binding [1] | binding [2] | Substance
1 | binds |  | ^125I-hIL13.E13Y (from UniProt P35225 33-146) (ligand)
2 |  | binds | hIL13.E13Y (from UniProt P35225 33-146) (ligand)
3 | binds | binds | native hIL13 (mature human interleukin 13) (from UniProt P35225 33-146) (ligand)
